This assay deals with T1, GFP‐tagged RNF8 (UniProt O76064).
T1 sequence: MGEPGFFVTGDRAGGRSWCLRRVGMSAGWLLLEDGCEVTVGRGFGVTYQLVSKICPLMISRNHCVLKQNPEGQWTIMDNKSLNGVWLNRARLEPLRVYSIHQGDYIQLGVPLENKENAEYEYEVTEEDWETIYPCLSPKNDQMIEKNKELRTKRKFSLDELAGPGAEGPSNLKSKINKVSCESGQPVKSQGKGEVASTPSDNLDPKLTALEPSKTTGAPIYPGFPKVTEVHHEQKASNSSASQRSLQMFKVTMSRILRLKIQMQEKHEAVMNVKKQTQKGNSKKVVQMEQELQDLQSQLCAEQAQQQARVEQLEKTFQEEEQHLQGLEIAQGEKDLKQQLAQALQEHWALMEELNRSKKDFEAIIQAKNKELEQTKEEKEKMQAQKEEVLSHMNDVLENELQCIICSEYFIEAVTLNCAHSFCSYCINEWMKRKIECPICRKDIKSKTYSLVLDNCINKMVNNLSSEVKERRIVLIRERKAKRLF
In words: affinity purification with mass spectrometry; GFP-tagged RNF8 expressed in HEK-293T cells, RNF8 complexes isolated, SDS-PAGE bands (coomassie) analysed by mass spectrometry.

Results are given in words; binding and its absence hold for the method and conditions named. Binding seen in cells or lysates may run through a third protein. These calls come from enrichment with a bait or labelling near it, and not all partners need be listed. Where a sequence is shown, tags or fusion partners need not be part of it.

As to “p53 (endogenous, found in the GFP-RNF8 complex) (from UniProt P04637 1-393)”, the binding entry is “binds”.

B1: NONO (protein, UniProt Q15233 1-471)
chain: MQSNKTFNLEKQNHTPRKHHQHHHQQQHHQQQQQQPPPPPIPANGQQASSQNEGLTIDLKNFRKPGEKTFTQRSRLFVGNLPPDITEEEMRKLFEKYGKAGEVFIHKDKGFGFIRLETRTLAEIAKVELDNMPLRGKQLRVRFACHSASLTVRNLPQYVSNELLEEAFSVFGQVERAVVIVDDRGRPSGKGIVEFSGKPAARKALDRCSEGSFLLTTFPRPVTVEPMDQLDDEEGLPEKLVIKNQQFHKEREQPPRFAQPGSFEYEYAMRWKALIEMEKQQQDQVDRNIKEAREKLEMEMEAARHEHQVMLMRQDLMRRQEELRRMEELHNQEVQKRKQLELRQEEERRRREEEMRRQQEEMMRRQQEGFKGTFPDAREQEIRMGQMAMGGAMGINNRGAMPPAPVPAGTPAPPGPATMMPDGTLGLTPPTTERFGQAATMEGIGAIGGTPPAFNRAAPGAEFAPNKRRRY
B1: the binding entry is on record as “binds”.

The values are drawn from PMC7106964.
